In patent publication US8133984B2, “Oligonucleotides comprising signalling pairs and hydrophobic nucleotides, stemless beacons, for detection of nucleic acids, methylation status and mutants of nucleic acids” (PENTABASE ApS, priority 2006, dated 2012):

System: Bgal_WT_tar oligo target
Assay: Affinity of stemless probes to single stranded oligo target (melt 25-90° C.)
Format: binding
Details: signal at 25 degrees divided by signal at 90 degrees
Source text: This example illustrates how stemless beacons comprising hydrophobic modifications of the structure: X—Y-Q where X is a backbone monomer unit linked to the oligo by phosphordiester bonds and of the structure —O—CH2—CH2—O—, Y is a —CH2—O—CH2— linker and Q is 1′-pyrene, will have higher affinity towards a fully complementary target sequence than a probe not comprising said hydrophobic modifications.
It can be seen from FIG. 13 that all stemless beacons have the similar or higher affinity for the complementary oligo nucleotide target compared to the corresponding DNA. Furthermore it can be calculated that all of the stemless beacons presented in this example (exclusive probe—1) have a similar or higher signal-to-noise ratio than the DNA probe without hydrophobic modifications (signal at 25 degrees divided by signal at 90 degrees).

Substance | Signal-to-noise
5′-Fam A1C CGA CCC AGC GCC 1C BHQ1-3′ [Probe _2] | 7.26
5′-Fam ACC G1A CCC AGC 1GC CC BHQ1-3′ [Probe _5] | 6.48
5′-Fam ACC GA1 CCC AG1 CGC CC BHQ1-3′ [Probe _6] | 5.99
5′-Fam ACC GAC 1CC A1G CGC CC BHQ1-3′ [Probe _7] | 5.88
